{"sequences": {"note": "Protein sequences, listed by entry. Tags and fused reporters are not part of them. Lines headed by an entry give the natural chain unless they say otherwise; changes in a name come on top.", "UniProt P14416": "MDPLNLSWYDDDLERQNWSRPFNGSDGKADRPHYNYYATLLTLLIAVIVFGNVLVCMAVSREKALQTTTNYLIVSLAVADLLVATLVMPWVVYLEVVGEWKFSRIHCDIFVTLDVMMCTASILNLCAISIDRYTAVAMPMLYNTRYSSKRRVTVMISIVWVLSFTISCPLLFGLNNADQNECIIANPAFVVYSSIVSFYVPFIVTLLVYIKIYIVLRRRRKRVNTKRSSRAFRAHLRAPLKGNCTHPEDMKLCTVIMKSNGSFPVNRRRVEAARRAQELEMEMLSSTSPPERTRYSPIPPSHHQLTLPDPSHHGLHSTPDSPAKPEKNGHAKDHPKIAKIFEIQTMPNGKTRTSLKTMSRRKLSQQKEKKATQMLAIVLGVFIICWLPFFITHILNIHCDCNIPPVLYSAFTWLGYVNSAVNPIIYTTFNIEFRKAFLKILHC"}, "source": "paper PMC7271519", "binders": {"B1": {"name": "Flag-DISC1 R264Q variant (protein, UniProt Q9NRI5 1-854)", "chain": "MPGGGPQGAPAAAGGGGVSHRAGSRDCLPPAACFRRRRLARRPGYMRSSTGPGIGFLSPAVGTLFRFPGGVSGEESHHSESRARQCGLDSRGLLVRSPVSKSAAAPTVTSVRGTSAHFGIQLRGGTRLPDRLSWPCGPGSAGWQQEFAAMDSSETLDASWEAACSDGARRVRAAGSLPSAELSSNSCSPGCGPEVPPTPPGSHSAFTSSFSFIRLSLGSAGERGEAEGCPPSREAESHCQSPQEMGAKAASLDGPHEDPRCLSQPFSLLATRVSADLAQAARNSSRPERDMHSLPDMDPGSSSSLDPSLAGCGGDGSSGSGDAHSWDTLLRKWEPVLRDCLLRNRRQMEVISLRLKLQKLQEDAVENDDYDKAETLQQRLEDLEQEKISLHFQLPSRQPALSSFLGHLAAQVQAALRRGATQQASGDDTHTPLRMEPRLLEPTAQDSLHVSITRRDWLLQEKQQLQKEIEALQARMFVLEAKDQQLRREIEEQEQQLQWQGCDLTPLVGQLSLGQLQEVSKALQDTLASAGQIPFHAEPPETIRSLQERIKSLNLSLKEITTKVCMSEKFCSTLRKKVNDIETQLPALLEAKMHAISGNHFWTAKDLTEEIRSLTSEREGLEGLLSKLLVLSSRNVKKLGSVKEDYNRLRREVEHQETAYETSVKENTMKYMETLKNKLCSCKCPLLGKVWEADLEACRLLIQSLQLQEARGSLSVEDERQMDDLEGAAPPIPPRLHSEDKRKTPLKVLEEWKTHLIPSLHCAGGEQKEESYILSAELGEKCEDIGKKLLYLEDQLHTAIHSHDEDLIQSLRRELQMVKETLQAMILQLQPAKEAGEREAAASCMTAGVHEAQA"}, "B2": {"name": "Flag-DISC1 A83V variant (protein, UniProt Q9NRI5 1-854)", "chain": "B1 chain with A83V, Q264R"}, "B3": {"name": "Flag-DISC1 (wild type) (protein, UniProt Q9NRI5 1-854)", "chain": "B1 chain with Q264R"}}, "note": "Residue numbers refer to the chain shown, from its start. In names and notes the source's numbering stands. Results are given in words; binding and its absence hold for the method and conditions named. In cells and extracts the contact can be indirect. Some entries that bind do so weakly or less than the wild type. Tags and fused reporters may be left off the sequences shown."}
{"target": "HA-D2R (dopamine D2 receptor) (UniProt P14416)", "test": "co-IP; HEK293T cells co-transfected with HA-D2R and Flag-DISC1 (WT, R264Q or A83V); 500-700 ug solubilized protein, anti-HA or IgG with protein A/G plus agarose, 4 °C, 12 h; blotted with anti-Flag and anti-HA"}
{"binder": "B1", "binding": "binds"}
{"binder": "B2", "binding": "binds"}
{"binder": "B3", "binding": "binds"}
